Holding throughout (assay): co-IP
The target of assay [1] is T1, hnRNPM-GFP (heterogeneous nuclear ribonucleoprotein M, C-terminally GFP-tagged), P52272.
T1 chain: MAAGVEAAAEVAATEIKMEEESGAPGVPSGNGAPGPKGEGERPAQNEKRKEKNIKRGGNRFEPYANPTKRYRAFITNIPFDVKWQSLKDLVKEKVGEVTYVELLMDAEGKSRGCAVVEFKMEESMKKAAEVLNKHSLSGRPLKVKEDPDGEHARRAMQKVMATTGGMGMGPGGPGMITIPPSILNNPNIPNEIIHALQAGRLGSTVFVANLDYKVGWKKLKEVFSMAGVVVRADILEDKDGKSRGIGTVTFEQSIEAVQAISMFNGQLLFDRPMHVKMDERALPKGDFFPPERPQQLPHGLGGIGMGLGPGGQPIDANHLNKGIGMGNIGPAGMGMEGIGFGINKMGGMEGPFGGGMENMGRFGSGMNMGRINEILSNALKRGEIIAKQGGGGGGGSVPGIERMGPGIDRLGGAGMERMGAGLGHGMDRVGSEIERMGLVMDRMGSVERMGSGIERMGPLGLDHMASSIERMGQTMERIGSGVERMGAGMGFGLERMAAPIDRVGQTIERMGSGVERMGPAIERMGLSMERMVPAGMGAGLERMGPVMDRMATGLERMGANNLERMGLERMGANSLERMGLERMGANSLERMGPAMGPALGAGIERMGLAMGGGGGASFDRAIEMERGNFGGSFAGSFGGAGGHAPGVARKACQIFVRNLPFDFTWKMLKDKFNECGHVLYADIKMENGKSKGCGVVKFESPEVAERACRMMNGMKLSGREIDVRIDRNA
The conditions noted are these: remark: other sources report otherwise.

Protein sequences, listed by entry. Tags and fused reporters are not part of them.
UniProt Q15717, whole entry: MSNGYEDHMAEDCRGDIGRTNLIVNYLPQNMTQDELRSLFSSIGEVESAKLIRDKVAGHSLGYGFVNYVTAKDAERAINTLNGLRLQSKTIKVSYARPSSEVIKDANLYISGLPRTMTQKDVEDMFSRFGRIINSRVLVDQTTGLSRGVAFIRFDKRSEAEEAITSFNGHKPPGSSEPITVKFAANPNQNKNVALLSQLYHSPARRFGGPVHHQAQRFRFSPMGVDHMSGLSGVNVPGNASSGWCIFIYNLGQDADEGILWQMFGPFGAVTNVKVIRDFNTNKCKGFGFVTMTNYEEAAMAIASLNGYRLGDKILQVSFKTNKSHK

The target of another assay is ELAVL1-FLAG (UniProt Q15717).
The target in assay [2] is T2, hnRNPM-GFP (heterogeneous nuclear ribonucleoprotein M, C-terminally GFP-tagged) (UniProt P52272).
T2 sequence: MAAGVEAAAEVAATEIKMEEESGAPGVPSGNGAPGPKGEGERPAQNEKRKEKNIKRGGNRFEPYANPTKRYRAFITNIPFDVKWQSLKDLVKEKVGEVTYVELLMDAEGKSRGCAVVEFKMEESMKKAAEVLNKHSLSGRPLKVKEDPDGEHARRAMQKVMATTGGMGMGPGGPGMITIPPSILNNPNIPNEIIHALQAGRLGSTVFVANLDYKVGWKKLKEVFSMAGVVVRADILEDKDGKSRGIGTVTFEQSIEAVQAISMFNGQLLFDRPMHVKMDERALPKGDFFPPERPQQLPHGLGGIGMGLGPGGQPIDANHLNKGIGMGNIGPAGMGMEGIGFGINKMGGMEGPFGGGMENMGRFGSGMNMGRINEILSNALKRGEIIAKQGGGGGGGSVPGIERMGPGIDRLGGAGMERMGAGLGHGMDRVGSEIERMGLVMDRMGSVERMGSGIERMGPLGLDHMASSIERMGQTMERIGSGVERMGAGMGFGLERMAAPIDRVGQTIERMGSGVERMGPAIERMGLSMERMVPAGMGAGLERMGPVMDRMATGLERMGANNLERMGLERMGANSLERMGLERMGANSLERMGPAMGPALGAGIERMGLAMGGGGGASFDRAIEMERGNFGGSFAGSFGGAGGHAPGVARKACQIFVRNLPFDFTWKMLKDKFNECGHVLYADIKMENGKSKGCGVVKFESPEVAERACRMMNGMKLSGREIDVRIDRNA

No constants are given. Whether binding was seen depends on the method and setting. Binding seen in cells or lysates may run through a third protein. Some binding calls cover weakened binding; strength is not graded here. For some of these results: Sequences can lack the tags named with a protein.

B1: TANK-binding kinase 1 (TBK1), endogenous in THP-1, Q9UHD2 1-729 (protein)
chain: MQSTSNHLWLLSDILGQGATANVFRGRHKKTGDLFAIKVFNNISFLRPVDVQMREFEVLKKLNHKNIVKLFAIEEETTTRHKVLIMEFCPCGSLYTVLEEPSNAYGLPESEFLIVLRDVVGGMNHLRENGIVHRDIKPGNIMRVIGEDGQSVYKLTDFGAARELEDDEQFVSLYGTEEYLHPDMYERAVLRKDHQKKYGATVDLWSIGVTFYHAATGSLPFRPFEGPRRNKEVMYKIITGKPSGAISGVQKAENGPIDWSGDMPVSCSLSRGLQVLLTPVLANILEADQEKCWGFDQFFAETSDILHRMVIHVFSLQQMTAHKIYIHSYNTATIFHELVYKQTKIISSNQELIYEGRRLVLEPGRLAQHFPKTTEENPIFVVSREPLNTIGLIYEKISLPKVHPRYDLDGDASMAKAITGVVCYACRIASTLLLYQELMRKGIRWLIELIKDDYNETVHKKTEVVITLDFCIRNIEKTVKVYEKLMKINLEAAELGEISDIHTKLLRLSSSQGTIETSLQDIDSRLSPGGSLADAWAHQEGTHPKDRNVEKLQVLLNCMTEIYYQFKKDKAERRLAYNEEQIHKFDKQKLYYHATKAMTHFTDECVKKYEAFLNKSEEWIRKMLHLRKQLLSLTNQCFDIEEEVSKYQEYTNELQETLPQKMFTASSGIKHTMTPIYPSSNTLVEMTLGMKKLKEEMEGVVKELAENNHILERFGSLTMDGGLRNVDCL
With B1, the binding result in assay [1] is reported as “binds”.

B2: TBK1, endogenous in HEK293FT (protein, UniProt Q9UHD2 1-729)
chain: MQSTSNHLWLLSDILGQGATANVFRGRHKKTGDLFAIKVFNNISFLRPVDVQMREFEVLKKLNHKNIVKLFAIEEETTTRHKVLIMEFCPCGSLYTVLEEPSNAYGLPESEFLIVLRDVVGGMNHLRENGIVHRDIKPGNIMRVIGEDGQSVYKLTDFGAARELEDDEQFVSLYGTEEYLHPDMYERAVLRKDHQKKYGATVDLWSIGVTFYHAATGSLPFRPFEGPRRNKEVMYKIITGKPSGAISGVQKAENGPIDWSGDMPVSCSLSRGLQVLLTPVLANILEADQEKCWGFDQFFAETSDILHRMVIHVFSLQQMTAHKIYIHSYNTATIFHELVYKQTKIISSNQELIYEGRRLVLEPGRLAQHFPKTTEENPIFVVSREPLNTIGLIYEKISLPKVHPRYDLDGDASMAKAITGVVCYACRIASTLLLYQELMRKGIRWLIELIKDDYNETVHKKTEVVITLDFCIRNIEKTVKVYEKLMKINLEAAELGEISDIHTKLLRLSSSQGTIETSLQDIDSRLSPGGSLADAWAHQEGTHPKDRNVEKLQVLLNCMTEIYYQFKKDKAERRLAYNEEQIHKFDKQKLYYHATKAMTHFTDECVKKYEAFLNKSEEWIRKMLHLRKQLLSLTNQCFDIEEEVSKYQEYTNELQETLPQKMFTASSGIKHTMTPIYPSSNTLVEMTLGMKKLKEEMEGVVKELAENNHILERFGSLTMDGGLRNVDCL
For B2, in the assay with ELAVL1-FLAG, the binding entry is listed as “binds”.

B3: IKKε, endogenous in THP-1 (protein, UniProt Q14164 1-716)
chain: MQSTANYLWHTDDLLGQGATASVYKARNKKSGELVAVKVFNTTSYLRPREVQVREFEVLRKLNHQNIVKLFAVEETGGSRQKVLVMEYCSSGSLLSVLESPENAFGLPEDEFLVVLRCVVAGMNHLRENGIVHRDIKPGNIMRLVGEEGQSIYKLTDFGAARELDDDEKFVSVYGTEEYLHPDMYERAVLRKPQQKAFGVTVDLWSIGVTLYHAATGSLPFIPFGGPRRNKEIMYRITTEKPAGAIAGAQRRENGPLEWSYTLPITCQLSLGLQSQLVPILANILEVEQAKCWGFDQFFAETSDILQRVVVHVFSLSQAVLHHIYIHAHNTIAIFQEAVHKQTSVAPRHQEYLFEGHLCVLEPSVSAQHIAHTTASSPLTLFSTAIPKGLAFRDPALDVPKFVPKVDLQADYNTAKGVLGAGYQALRLARALLDGQELMFRGLHWVMEVLQATCRRTLEVARTSLLYLSSSLGTERFSSVAGTPEIQELKAAAELRSRLRTLAEVLSRCSQNITETQESLSSLNRELVKSRDQVHEDRSIQQIQCCLDKMNFIYKQFKKSRMRPGLGYNEEQIHKLDKVNFSHLAKRLLQVFQEECVQKYQASLVTHGKRMRVVHETRNHLRLVGCSVAACNTEAQGVQESLSKLLEELSHQLLQDRAKGAQASPPPIAPYPSPTRKDLLLHMQELCEGMKLLASDLLDNNRIIERLNRVPAPPDV
Take B3: the binding result in assay [2] is “binds”.

B4: IKKβ (printed as IKKý; IKBKB), endogenous in THP-1 (protein, UniProt O14920 1-756)
chain: MSWSPSLTTQTCGAWEMKERLGTGGFGNVIRWHNQETGEQIAIKQCRQELSPRNRERWCLEIQIMRRLTHPNVVAARDVPEGMQNLAPNDLPLLAMEYCQGGDLRKYLNQFENCCGLREGAILTLLSDIASALRYLHENRIIHRDLKPENIVLQQGEQRLIHKIIDLGYAKELDQGSLCTSFVGTLQYLAPELLEQQKYTVTVDYWSFGTLAFECITGFRPFLPNWQPVQWHSKVRQKSEVDIVVSEDLNGTVKFSSSLPYPNNLNSVLAERLEKWLQLMLMWHPRQRGTDPTYGPNGCFKALDDILNLKLVHILNMVTGTIHTYPVTEDESLQSLKARIQQDTGIPEEDQELLQEAGLALIPDKPATQCISDGKLNEGHTLDMDLVFLFDNSKITYETQISPRPQPESVSCILQEPKRNLAFFQLRKVWGQVWHSIQTLKEDCNRLQQGQRAAMMNLLRNNSCLSKMKNSMASMSQQLKAKLDFFKTSIQIDLEKYSEQTEFGITSDKLLLAWREMEQAVELCGRENEVKLLVERMMALQTDIVDLQRSPMGRKQGGTLDDLEEQARELYRRLREKPRDQRTEGDSQEMVRLLLQAIQSFEKKVRVIYTQLSKTVVCKQKALELLPKVEEVVSLMNEDEKTVVRLQEKRQKELWNLLKIACSKVRGPVSGSPDSMNASRLSQPGQLMSQPSTASNSLPEPAKKSEELVAEAHNLCTLLENAIQDTVREQDQSFTALDWSWLQTEEEEHSCLEQAS
Take B4: in assay [2], the binding entry is “binds”.

B5: hnRNPM, endogenous in HEK293FT (protein, UniProt P52272 1-730)
chain: MAAGVEAAAEVAATEIKMEEESGAPGVPSGNGAPGPKGEGERPAQNEKRKEKNIKRGGNRFEPYANPTKRYRAFITNIPFDVKWQSLKDLVKEKVGEVTYVELLMDAEGKSRGCAVVEFKMEESMKKAAEVLNKHSLSGRPLKVKEDPDGEHARRAMQKVMATTGGMGMGPGGPGMITIPPSILNNPNIPNEIIHALQAGRLGSTVFVANLDYKVGWKKLKEVFSMAGVVVRADILEDKDGKSRGIGTVTFEQSIEAVQAISMFNGQLLFDRPMHVKMDERALPKGDFFPPERPQQLPHGLGGIGMGLGPGGQPIDANHLNKGIGMGNIGPAGMGMEGIGFGINKMGGMEGPFGGGMENMGRFGSGMNMGRINEILSNALKRGEIIAKQGGGGGGGSVPGIERMGPGIDRLGGAGMERMGAGLGHGMDRVGSEIERMGLVMDRMGSVERMGSGIERMGPLGLDHMASSIERMGQTMERIGSGVERMGAGMGFGLERMAAPIDRVGQTIERMGSGVERMGPAIERMGLSMERMVPAGMGAGLERMGPVMDRMATGLERMGANNLERMGLERMGANSLERMGLERMGANSLERMGPAMGPALGAGIERMGLAMGGGGGASFDRAIEMERGNFGGSFAGSFGGAGGHAPGVARKACQIFVRNLPFDFTWKMLKDKFNECGHVLYADIKMENGKSKGCGVVKFESPEVAERACRMMNGMKLSGREIDVRIDRNA
On to B5, for which the binding entry with ELAVL1-FLAG is given as “binds”.

B6: IRF3 phosphorylated at Ser396 (pIRF3-Ser396), endogenous in THP-1 (protein, UniProt Q14653 1-427)
chain: MGTPKPRILPWLVSQLDLGQLEGVAWVNKSRTRFRIPWKHGLRQDAQQEDFGIFQAWAEATGAYVPGRDKPDLPTWKRNFRSALNRKEGLRLAEDRSKDPHDPHKIYEFVNSGVGDFSQPDTSPDTNGGGSTSDTQEDILDELLGNMVLAPLPDPGPPSLAVAPEPCPQPLRSPSLDNPTPFPNLGPSENPLKRLLVPGEEWEFEVTAFYRGRQVFQQTISCPEGLRLVGSEVGDRTLPGWPVTLPDPGMSLTDRGVMSYVRHVLSCLGGGLALWRAGQWLWAQRLGHCHTYWAVSEELLPNSGHGPDGEVPKDKEGGVFDLGPFIVDLITFTEGSGRSPRYALWFCVGESWPQDQPWTKRLVMVKVVPTCLRALVEMARVGGASSLENTVDLHISNSHPLSLTSDQYKAYLQDLVEGMDFQGPGES
modifications: phosphoserine at 396
Turning to B6, the binding entry in assay [2] is “no binding”.

B7: Interferon regulatory factor 3 (IRF3), endogenous in THP-1 (protein, UniProt Q14653 1-427)
chain: MGTPKPRILPWLVSQLDLGQLEGVAWVNKSRTRFRIPWKHGLRQDAQQEDFGIFQAWAEATGAYVPGRDKPDLPTWKRNFRSALNRKEGLRLAEDRSKDPHDPHKIYEFVNSGVGDFSQPDTSPDTNGGGSTSDTQEDILDELLGNMVLAPLPDPGPPSLAVAPEPCPQPLRSPSLDNPTPFPNLGPSENPLKRLLVPGEEWEFEVTAFYRGRQVFQQTISCPEGLRLVGSEVGDRTLPGWPVTLPDPGMSLTDRGVMSYVRHVLSCLGGGLALWRAGQWLWAQRLGHCHTYWAVSEELLPNSGHGPDGEVPKDKEGGVFDLGPFIVDLITFTEGSGRSPRYALWFCVGESWPQDQPWTKRLVMVKVVPTCLRALVEMARVGGASSLENTVDLHISNSHPLSLTSDQYKAYLQDLVEGMDFQGPGES
Take B7: in assay [2], the binding result is reported as “no binding”.

Source of the values: doi:10.1101/2023.06.23.545108.
